Measurements: the supplement of paper PMC3334620
In all, about 33,000 sequences were measured (“E-score (-0.5 to 0.5)”: median about -0.0059, highest 2% from about 0.26 on). Some of the results follow.

The sequences below were run against T1, Cin5 (UniProt P40917) (assay: PBM E-score (8-mer binding enrichment) (E-score (-0.5 to 0.5)); higher = stronger / more preferred TF binding). Conditions: protein concentration: 100 nM; construct: GST-full length.
T1 sequence: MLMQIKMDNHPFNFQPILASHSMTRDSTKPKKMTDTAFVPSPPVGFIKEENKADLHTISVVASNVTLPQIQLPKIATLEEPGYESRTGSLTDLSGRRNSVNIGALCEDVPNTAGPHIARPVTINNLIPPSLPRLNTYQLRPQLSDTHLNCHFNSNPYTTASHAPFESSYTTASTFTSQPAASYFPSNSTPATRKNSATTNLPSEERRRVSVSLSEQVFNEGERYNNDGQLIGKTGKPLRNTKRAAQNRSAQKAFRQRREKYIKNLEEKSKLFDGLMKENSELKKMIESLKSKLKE
How it was run: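 Each ungapped eight-base word and its reverse complement, pooled, received an E-score from the Universal PBM Analysis Suite. Underlying scans, normalised with masliner, recorded fluorescent anti-GST bound to GST-tagged yeast transcription factors. These were applied at about 100-200 nM to universal all-10-mer Agilent arrays double-stranded by primer extension.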

| Sequence | PBM E-score |
| --- | --- |
| GCTGCGAA | 0.0387 |
| ACACAGCC | -0.0402 |
| GGTTCTTA | 0.0912 |
| AGATCACT | 0.112 |
| CAGTTGAG | -0.0998 |
| GCCTCGGA | -0.162 |
| GACTCTCA | 0.0568 |
| ACACACAT | 0.0722 |
| ACATAAGC | 0.437 |
| GTGCACCA | -0.032 |
| ATACTCAG | 0.258 |
| AGAGACCT | -0.142 |
| CCATGATA | 0.0295 |
| TCCCTCAA | -0.0793 |
| GCTAGGAC | -0.287 |
| ACGTGTCG | -0.106 |
| GATTCGGA | 0.196 |
| ATGGTCGC | -0.115 |
| CATTGGCC | -0.217 |
| CCTACCCA | -0.0673 |
| GGATATAA | 0.149 |
| CATCTAGA | 0.0871 |
| TGTTAACA | 0.0456 |
| ACTTTTAG | -0.0275 |
| ATTGTAAC | 0.0597 |

| Sequence | PBM E-score |
| --- | --- |
| GCAGGTCC | -0.0437 |
| CCAGGACG | -0.215 |
| ACATGACG | 0.00136 |
| CCACGAAC | 0.0703 |
| GTAGATAC | 0.0747 |
| CACCACTA | 0.152 |
| CAGGACCC | -0.19 |
| CGCAGTGA | -0.016 |
| TCAAAGGA | -0.127 |
| CGCAATGC | -0.0471 |
| ACCACAGT | 0.181 |
| ATGTTATG | 0.23 |
| GAATCTAC | 0.0167 |
| CTTAGTTC | 0.0989 |
| ACCGTTCT | 0.00357 |
| AAGACGGC | -0.00699 |
| GAGTGCAA | 0.181 |
| CCCCTAGG | -0.2 |
| CGAGAACC | -0.135 |
| GACAGTAC | 0.0368 |
| GAGAGCAC | -0.11 |
| AAGCTGAG | 0.0827 |
| GTATGGTA | 0.186 |
| TATAGTCA | 0.0921 |
| CCAGACTC | -0.114 |

| Sequence | PBM E-score |
| --- | --- |
| CTAAGAGA | -0.105 |
| GACACGCA | 0.00821 |
| ACTAAAAG | 0.0211 |
| GCTAGATA | 0.0828 |
| AGATCGCG | 0.0855 |
| GCAGAAAC | 0.0275 |
| AAGTTACG | 0.208 |
| CGAATGAA | 0.0154 |
| GGACAGCA | -0.0105 |
| ATTTCCTG | 0.164 |
| GAGACCCC | -0.176 |
| CTTTTGCC | 0.138 |
| AGGCAAGC | -0.175 |
| ATTTTTTC | 0.111 |
| ATATACTG | 0.202 |
| CCTGGTCG | -0.297 |
| CCAAGTAG | -0.0659 |
| CGAGATTC | 0.168 |
| CGTCCCTA | -0.238 |
| CTGGCTGC | -0.157 |
| CATGATAC | 0.184 |
| GATAAAAA | 0.115 |
| CCCGTCGA | -0.19 |
| AAAGTGTC | 0.0469 |
| ACTATGGA | -0.119 |

| Sequence | PBM E-score |
| --- | --- |
| AGACTTTG | -0.0222 |
| AGGGGGGG | -0.486 |
| ACTGCTAG | -0.144 |
| CCAAGGAA | -0.189 |
| AATTTTGA | 0.123 |
| GATCAGTA | 0.0752 |
| ACGGAATA | 0.22 |
| ACGCCGGA | -0.169 |
| CCCGTCGC | -0.143 |
| AAACACCC | -0.00644 |
| AGCCCGTA | -0.259 |
| ACGAAGAA | 0.284 |
| ATTCACAG | 0.0491 |
| ATGAGAGG | -0.0789 |
| AGAGCTTG | -0.0623 |
| GTACGATA | 0.003 |
| AACGTTTA | 0.00096 |
| GCCACTCC | 0.00604 |
| CCAACTGA | -0.0912 |
| CGTCATAA | 0.157 |
| AAACATGT | 0.261 |
| AAATCCAC | 0.0254 |
| GTTGCACA | -0.17 |
| CAAAATTA | 0.156 |
| CCCCAAGG | -0.0715 |

| Sequence | PBM E-score |
| --- | --- |
| CTGCTTCA | -0.153 |
| CGCGACGC | -0.0999 |
| TCAAGCGA | 0.0108 |
| CCGGCGCA | -0.0376 |
| CAAGACAC | 0.101 |
| CGTACTCA | 0.228 |
| GGGACAGA | -0.189 |
| GATTACAA | 0.175 |
| ATTGGTCG | 0.0452 |
| CGCTGTGA | -0.0731 |
| AGCCGGTA | -0.0767 |
| CCCCCCAG | -0.489 |
| GGCTTGAC | -0.0104 |
| ACAATGAA | 0.125 |
| ATGTGTAG | 0.141 |
| GCGATCGC | 0.125 |
| GGAGGTAA | -0.00128 |
| CTCGTGTA | 0.0208 |
| AGAGCTCA | -0.0702 |
| ACCTCATA | 0.0846 |
| AGTGCAAT | 0.159 |
| CCTCGCGC | -0.0801 |
| CGATTTGC | -0.066 |
| CTCATAAA | 0.0593 |
| ATACCTGA | 0.138 |

| Sequence | PBM E-score |
| --- | --- |
| CCTAGACA | -0.25 |
| ATCTATGA | 0.129 |
| AGGCCCCG | -0.258 |
| ATCTAGAG | 0.0258 |
| CAGGTGAC | -0.208 |
| CGGTCCTC | -0.209 |
| CGAAACTA | 0.159 |
| GGTCATGA | 0.054 |
| CTTGCGTA | 0.00041 |
| AGACGCGA | 0.0486 |
| ACATCCCG | 0.221 |
| ACACGCCG | 0.0675 |
| GTGCCCGA | -0.291 |
| AAGTACTG | -0.0282 |
| AAACACAA | -0.0174 |
| AGCAAGAC | 0.00492 |
| AAAAGTAG | 0.0258 |
| CGGAGGAC | -0.212 |
| AACGGGTA | 0.0943 |
| AGAGTGAG | 0.0504 |
| CACCGACA | -0.0774 |
| ACTTGTCA | 0.014 |
| ATGGGAAG | -0.0733 |
| AACTTGTG | 0.254 |
| AGAATCTA | -0.0563 |

| Sequence | PBM E-score |
| --- | --- |
| CGTCCAAA | 0.129 |
| AAACGATA | 0.012 |
| ATTTTAGG | -0.0296 |
| ACGTTCCC | -0.0944 |
| ATTAATTG | 0.193 |
| CCAATAGC | -0.0788 |
| CTGGACAG | -0.132 |
| CACACCTC | 0.112 |
| ACAGCATC | 0.119 |
| AATGAGGA | -0.105 |
| CTTGCAAG | -0.0398 |
| ATAGCGTA | 0.16 |
| CTGACGAC | -0.103 |
| ATATGTTA | 0.105 |
| TACCCTGA | -0.0518 |
| AGGTACGA | -0.123 |
| GATGAATA | 0.243 |
| GAAGCCAC | -0.101 |
| AAACAGCT | 0.0148 |
| GAAGCAGA | -0.0139 |
| CACACTTC | -0.0175 |
| CATTGCCG | -0.0695 |
| AGTAGACA | -0.0445 |
| CCCGTCAA | -0.162 |
| AACCTAAA | 0.148 |

| Sequence | PBM E-score |
| --- | --- |
| AGATGATA | 0.212 |
| AGAGTCAG | -0.0724 |
| ATTGTGTA | 0.142 |
| AGCAGGAG | -0.154 |
| GTGTCGAA | -0.148 |
| CCGACTTA | 0.0203 |
| AACAAAGG | 0.0888 |
| CCACCACA | -0.106 |
| CCTTGACA | -0.188 |
| CTTTTTGA | -0.0601 |
| ACATATCT | 0.103 |
| CGCTGTTA | -0.182 |
| AATGTGTG | 0.182 |
| ACTTAGCC | -0.00336 |
| AACCCTGG | -0.199 |
| AGTGGGTG | 0.203 |
| CATCCATC | 0.0549 |
| GCGTCGAC | 0.14 |
| GTTCTTGA | 0.00403 |
| CCGAGTGC | -0.0394 |
| CCCTTACA | -0.0251 |
| CATGTTCA | 0.0492 |
| AATCCTGA | 0.0405 |
| ATTAGTAA | 0.387 |
| ATCGTTCG | 0.138 |

| Sequence | PBM E-score |
| --- | --- |
| GAGCCCTA | -0.241 |
| CGTATACA | 0.0738 |
| CACGAATC | 0.11 |
| CTATTCCC | -0.0521 |
| ATTGGGAA | 0.123 |
| TGCTTTAA | 0.0498 |
| GCGGCCCA | -0.14 |
| GACGTTCA | -0.156 |
| CTACATTC | -0.121 |
| GCCCGTCA | -0.209 |
| GGAAAACC | -0.0807 |
| CTGGAAAC | -0.0097 |
| GCTACACA | -0.0357 |
| AACGACTC | -0.221 |
| CAGCGCGC | 0.0616 |
| ACCGGCAG | -0.285 |
| CACTTCTG | -0.0536 |
| CATTTTTA | 0.00398 |
| AGCTGCTA | -0.0218 |
